Reference: PubChem BioAssay AID1159578 (Peter MacCallum Cancer Centre, 2015)
The deposit covers about 18,000 reagents; below is a part drawn at random. About 1,030 of them (5.7%) were called active. 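Inactive calls also include pools with fewer than 3300 nuclei, whose migration was not assessed.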 Raw values are not corrected between plates. Unmarked entries are inactive. Further read-outs or replicates are left out here. No sequences are given here.

- Purpose: 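Knock-downs that alter how fast lymphatic endothelial cells migrate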 (primary screen)
- Cells: human lymphatic endothelial cells
- Reagents: siRNA pool against human genes, 40 nM
- Time to read-out: 48 h after transfection
- Read-out: 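High-content imaging of dye-stained cells in a scratch assay measures filled wound area and nuclei per well; duplicate means given as ratio to mock and robust z-score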
- Direction: migration robust z-score: higher = faster migration into the scratch; nuclei per well: higher = more cells in the well
- Call rule: 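Pools averaging fewer than 3300 nuclei are never called; remaining pools count as changed when migration robust z lies outside -2 to 2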
- Meaning of the calls: active = migration changed; inactive = no migration change, or too few cells

LRRCC1: migration robust z-score = -0.96; nuclei per well, duplicate mean = 4716
MYH1: migration robust z-score = 0.93; nuclei per well, duplicate mean = 6326
FBXO42: migration robust z-score = -0.21; nuclei per well, duplicate mean = 5417
IL1RAP: migration robust z-score = 1.27; nuclei per well, duplicate mean = 5382
ROM1: migration robust z-score = -0.02; nuclei per well, duplicate mean = 5592
BCO1: migration robust z-score = 1.25; nuclei per well, duplicate mean = 5982
RBBP8NL: migration robust z-score = -0.72; nuclei per well, duplicate mean = 5256
DHCR24: migration robust z-score = -1.77; nuclei per well, duplicate mean = 3086
CNTNAP2: migration robust z-score = 0.91; nuclei per well, duplicate mean = 7080
ATP5ME: migration robust z-score = -3.83; nuclei per well, duplicate mean = 2436
KCNIP4: migration robust z-score = -0.36; nuclei per well, duplicate mean = 5864
SLC27A1: migration robust z-score = -0.42; nuclei per well, duplicate mean = 5688
RBMY1D: migration robust z-score = 0.5; nuclei per well, duplicate mean = 6409
ZNF227: migration robust z-score = 0.18; nuclei per well, duplicate mean = 5319
CSMD1: migration robust z-score = -0.94; nuclei per well, duplicate mean = 5636
DLGAP4: migration robust z-score = -0.25; nuclei per well, duplicate mean = 5816
CST8: migration robust z-score = 0.42; nuclei per well, duplicate mean = 5674
SCMH1: migration robust z-score = 0.86; nuclei per well, duplicate mean = 4392
USP21: migration robust z-score = -0.99; nuclei per well, duplicate mean = 5539
RAD51AP1: migration robust z-score = -1.68; nuclei per well, duplicate mean = 5424
SACK1H: migration robust z-score = -0.95; nuclei per well, duplicate mean = 5663
